In publication PMC10272139:
These are yes or no findings as the source states them, for the method shown. Binding seen in cells or lysates may run through a third protein. Some entries that bind do so weakly or less than the wild type.

Sequences of proteins named here, by UniProt entry; tags and fusion partners are left off.
UniProt G5E8K5: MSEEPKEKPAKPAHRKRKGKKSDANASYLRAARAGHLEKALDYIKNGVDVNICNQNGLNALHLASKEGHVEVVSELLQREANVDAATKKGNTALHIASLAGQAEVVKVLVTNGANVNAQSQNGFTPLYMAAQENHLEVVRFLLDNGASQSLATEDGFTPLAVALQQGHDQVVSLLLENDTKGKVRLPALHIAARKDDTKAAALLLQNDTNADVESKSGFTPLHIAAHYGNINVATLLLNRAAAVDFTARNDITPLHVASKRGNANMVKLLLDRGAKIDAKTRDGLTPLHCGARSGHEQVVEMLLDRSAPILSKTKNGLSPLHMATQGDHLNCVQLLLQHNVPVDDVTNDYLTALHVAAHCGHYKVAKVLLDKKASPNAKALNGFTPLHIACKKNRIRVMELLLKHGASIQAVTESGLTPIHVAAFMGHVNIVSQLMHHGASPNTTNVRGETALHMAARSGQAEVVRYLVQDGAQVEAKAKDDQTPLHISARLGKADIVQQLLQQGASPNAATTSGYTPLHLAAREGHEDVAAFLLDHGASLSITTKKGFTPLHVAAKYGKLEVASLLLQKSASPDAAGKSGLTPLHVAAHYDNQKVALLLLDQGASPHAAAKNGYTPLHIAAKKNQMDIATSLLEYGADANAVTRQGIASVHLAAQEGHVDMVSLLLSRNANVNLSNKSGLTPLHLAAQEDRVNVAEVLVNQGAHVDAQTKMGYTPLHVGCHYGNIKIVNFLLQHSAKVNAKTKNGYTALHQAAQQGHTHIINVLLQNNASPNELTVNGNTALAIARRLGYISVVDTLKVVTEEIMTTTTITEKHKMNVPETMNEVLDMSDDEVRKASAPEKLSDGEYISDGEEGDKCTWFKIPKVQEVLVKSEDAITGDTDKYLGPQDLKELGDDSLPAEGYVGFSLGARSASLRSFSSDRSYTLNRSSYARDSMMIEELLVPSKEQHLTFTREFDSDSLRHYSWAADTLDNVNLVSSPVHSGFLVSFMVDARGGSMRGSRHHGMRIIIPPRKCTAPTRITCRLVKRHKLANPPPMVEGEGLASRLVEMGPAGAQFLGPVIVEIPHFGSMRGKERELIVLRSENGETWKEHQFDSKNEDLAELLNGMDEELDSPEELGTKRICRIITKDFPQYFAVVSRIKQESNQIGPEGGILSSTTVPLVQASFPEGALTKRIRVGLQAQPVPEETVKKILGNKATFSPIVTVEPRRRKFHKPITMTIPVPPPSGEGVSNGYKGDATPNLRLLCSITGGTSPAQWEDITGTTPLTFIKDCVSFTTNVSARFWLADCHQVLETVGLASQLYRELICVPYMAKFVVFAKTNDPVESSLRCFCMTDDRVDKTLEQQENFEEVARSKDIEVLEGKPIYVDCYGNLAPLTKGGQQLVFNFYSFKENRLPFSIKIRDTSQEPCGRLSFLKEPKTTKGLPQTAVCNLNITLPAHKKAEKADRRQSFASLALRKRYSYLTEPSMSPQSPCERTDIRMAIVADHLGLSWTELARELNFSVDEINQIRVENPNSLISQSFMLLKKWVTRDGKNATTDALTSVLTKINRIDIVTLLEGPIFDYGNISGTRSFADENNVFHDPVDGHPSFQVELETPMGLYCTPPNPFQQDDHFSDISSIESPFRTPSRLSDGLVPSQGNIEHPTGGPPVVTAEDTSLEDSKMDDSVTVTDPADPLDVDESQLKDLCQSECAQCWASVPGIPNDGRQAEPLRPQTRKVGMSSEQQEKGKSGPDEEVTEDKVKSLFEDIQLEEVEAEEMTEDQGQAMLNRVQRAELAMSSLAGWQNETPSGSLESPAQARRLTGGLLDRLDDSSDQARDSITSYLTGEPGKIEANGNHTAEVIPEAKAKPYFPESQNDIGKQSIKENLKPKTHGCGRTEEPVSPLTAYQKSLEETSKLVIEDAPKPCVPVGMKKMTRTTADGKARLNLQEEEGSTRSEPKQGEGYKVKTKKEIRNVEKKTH
UniProt Q9Z351: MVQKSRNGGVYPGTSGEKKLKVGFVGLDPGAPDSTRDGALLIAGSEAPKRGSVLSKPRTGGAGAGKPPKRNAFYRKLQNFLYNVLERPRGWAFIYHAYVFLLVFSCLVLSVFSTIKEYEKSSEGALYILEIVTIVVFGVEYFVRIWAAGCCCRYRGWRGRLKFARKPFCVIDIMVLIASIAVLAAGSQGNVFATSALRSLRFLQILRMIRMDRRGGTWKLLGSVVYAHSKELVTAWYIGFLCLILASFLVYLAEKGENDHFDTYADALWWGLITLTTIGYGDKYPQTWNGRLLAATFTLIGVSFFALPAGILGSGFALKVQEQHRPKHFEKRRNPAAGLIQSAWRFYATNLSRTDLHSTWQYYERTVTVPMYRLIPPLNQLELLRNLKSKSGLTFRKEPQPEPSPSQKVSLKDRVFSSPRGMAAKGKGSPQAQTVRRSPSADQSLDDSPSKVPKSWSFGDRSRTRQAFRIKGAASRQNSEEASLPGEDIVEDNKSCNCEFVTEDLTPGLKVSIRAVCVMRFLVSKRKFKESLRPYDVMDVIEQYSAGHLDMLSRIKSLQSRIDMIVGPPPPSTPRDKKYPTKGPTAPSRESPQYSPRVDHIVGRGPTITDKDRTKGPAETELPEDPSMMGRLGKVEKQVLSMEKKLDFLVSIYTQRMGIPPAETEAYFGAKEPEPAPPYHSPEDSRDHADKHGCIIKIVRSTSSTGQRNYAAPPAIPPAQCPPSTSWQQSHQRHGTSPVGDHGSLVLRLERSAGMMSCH
UniProt Q8K3F6: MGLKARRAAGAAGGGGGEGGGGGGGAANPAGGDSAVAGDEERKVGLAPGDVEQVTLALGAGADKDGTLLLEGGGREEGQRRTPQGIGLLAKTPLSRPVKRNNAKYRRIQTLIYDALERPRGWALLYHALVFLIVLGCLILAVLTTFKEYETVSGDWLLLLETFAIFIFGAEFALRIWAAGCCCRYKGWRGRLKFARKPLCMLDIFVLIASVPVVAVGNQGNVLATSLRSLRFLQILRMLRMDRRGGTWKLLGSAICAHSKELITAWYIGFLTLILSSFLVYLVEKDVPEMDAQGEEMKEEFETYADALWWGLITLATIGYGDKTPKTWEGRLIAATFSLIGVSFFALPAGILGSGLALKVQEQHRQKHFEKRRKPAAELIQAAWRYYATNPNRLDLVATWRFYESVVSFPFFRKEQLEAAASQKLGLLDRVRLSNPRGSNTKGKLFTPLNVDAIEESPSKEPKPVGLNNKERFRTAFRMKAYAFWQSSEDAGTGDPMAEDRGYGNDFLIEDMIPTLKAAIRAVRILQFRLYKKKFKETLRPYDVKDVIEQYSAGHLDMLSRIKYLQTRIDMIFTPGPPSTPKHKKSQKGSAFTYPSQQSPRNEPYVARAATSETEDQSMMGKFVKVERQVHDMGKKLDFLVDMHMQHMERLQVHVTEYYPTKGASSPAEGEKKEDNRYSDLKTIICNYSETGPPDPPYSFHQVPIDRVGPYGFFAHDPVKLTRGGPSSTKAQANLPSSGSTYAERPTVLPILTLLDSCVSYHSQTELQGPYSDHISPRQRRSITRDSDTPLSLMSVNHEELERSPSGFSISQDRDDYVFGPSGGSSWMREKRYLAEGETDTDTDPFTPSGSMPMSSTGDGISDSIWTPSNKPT

Biological target: Ank3 (mouse (endogenous in cultured hippocampal neurons)) (UniProt G5E8K5)
Experiment: co-IP; lysate of WT mouse cultured hippocampal neurons (DIV 17-18); lysis buffer 150 mM NaCl, 50 mM Tris pH 7.4, 1 mM EDTA, 1% TX-100; 1 ug mouse IgG, anti-Ank2 or anti-Ank3 antibody, 4 °C 2 h; protein A/G agarose beads; immunoblot

| binding | Substance |
| --- | --- |
| binds | Kv7.2/KCNQ2 potassium channel subunit (from UniProt Q9Z351 1-759) |
| binds | Kv7.3/KCNQ3 potassium channel subunit (from UniProt Q8K3F6 1-873) |
